According to PMC10397291, “Molecular pathway and structural mechanism of human oncochannel TRPV6 inhibition by the phytocannabinoid tetrahydrocannabivarin” (Nature Communications, 2023):
Numbering of substitutions follows the chain as printed. Where “and” joins values, the source holds several entries; their conditions need not be identical. Equal values may be shown once. The source gives many values for each of these; only a part stands here.

Experiments:
Format in all cases: cell-based
Conditions in all cases: replicates
F493A mutant hTRPV6 = molecular target: T1, F493A mutant hTRPV6 (Homo sapiens, UniProt Q9H1D0, F533A); experiment: Fura-2 AM Ca2+ uptake, F493A mutant hTRPV6
T1 construct: Full-length wild-type or mutant human TRPV6 was expressed in HEK 293S cells as described above; expressed in transfected cells; host or cells: HEK 293S GnTI- (baculovirus/BacMam transduction)
T1 sequence (Q9H1D0 41-765 F533A limits assumed): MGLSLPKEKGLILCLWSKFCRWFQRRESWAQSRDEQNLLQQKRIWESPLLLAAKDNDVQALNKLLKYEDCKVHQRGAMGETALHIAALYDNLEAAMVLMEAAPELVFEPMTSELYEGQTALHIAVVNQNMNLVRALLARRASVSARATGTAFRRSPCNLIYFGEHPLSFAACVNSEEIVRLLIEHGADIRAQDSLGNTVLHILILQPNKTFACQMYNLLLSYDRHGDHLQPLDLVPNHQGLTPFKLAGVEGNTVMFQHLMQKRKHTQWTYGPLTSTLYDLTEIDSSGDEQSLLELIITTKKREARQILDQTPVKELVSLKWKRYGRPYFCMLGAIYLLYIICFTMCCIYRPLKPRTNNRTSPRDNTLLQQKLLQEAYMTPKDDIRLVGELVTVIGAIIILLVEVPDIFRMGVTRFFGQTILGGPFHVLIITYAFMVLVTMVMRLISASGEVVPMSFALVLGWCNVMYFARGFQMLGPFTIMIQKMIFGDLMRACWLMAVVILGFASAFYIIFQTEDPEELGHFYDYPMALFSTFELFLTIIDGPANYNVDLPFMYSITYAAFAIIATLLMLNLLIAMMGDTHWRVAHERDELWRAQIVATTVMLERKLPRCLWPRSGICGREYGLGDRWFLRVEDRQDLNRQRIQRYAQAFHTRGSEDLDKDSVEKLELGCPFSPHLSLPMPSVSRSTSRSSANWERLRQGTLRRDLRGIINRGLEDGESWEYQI

T567A mutant hTRPV6 = molecular target: T2, T567A mutant hTRPV6 (Homo sapiens, UniProt Q9H1D0, T607A); experiment: Fura-2 AM Ca2+ uptake, T567A mutant hTRPV6
T2 construct: Full-length wild-type or mutant human TRPV6 was expressed in HEK 293S cells as described above; expressed in transfected cells; host or cells: HEK 293S GnTI- (baculovirus/BacMam transduction)
T2 sequence (Q9H1D0 41-765 T607A limits assumed): T1 sequence (Q9H1D0 41-765 F533A limits assumed) with A493F, T567A

L568Q mutant hTRPV6 = molecular target: T3, L568Q mutant hTRPV6 (Homo sapiens, UniProt Q9H1D0, L608Q); experiment: Fura-2 AM Ca2+ uptake, L568Q mutant hTRPV6
T3 construct: Full-length wild-type or mutant human TRPV6 was expressed in HEK 293S cells as described above; expressed in transfected cells; host or cells: HEK 293S GnTI- (baculovirus/BacMam transduction)
T3 sequence (Q9H1D0 41-765 L608Q limits assumed): T1 sequence (Q9H1D0 41-765 F533A limits assumed) with A493F, L568Q

## CCCc1cc(O)c2c(c1)OC(C)(C)[C@@H]1CCC(C)=C[C@@H]21 [THCV, tetrahydrocannabivarin]
F493A mutant hTRPV6; 1 μM THCV
  change in F340/F380 evoked by 10 mM Ca2+: 1.137 and 1.068 and 1.041 and 0.965
F493A mutant hTRPV6; 3 μM THCV
  change in F340/F380 evoked by 10 mM Ca2+: 0.516 and 0.865 and 0.862 and 0.894
F493A mutant hTRPV6; 10 μM THCV
  change in F340/F380 evoked by 10 mM Ca2+: 0.475 and 0.356 and 0.375 and 0.486
F493A mutant hTRPV6; 30 μM THCV
  change in F340/F380 evoked by 10 mM Ca2+: 0.382 and 0.386 and 0.353 and 0.348
F493A mutant hTRPV6; 100 μM THCV
  change in F340/F380 evoked by 10 mM Ca2+: 0.567 and 0.665 and 0.648 and 0.644
T567A mutant hTRPV6; 1 μM THCV
  change in F340/F380 evoked by 10 mM Ca2+: 1.055 and 1.072 and 1.066
T567A mutant hTRPV6; 3 μM THCV
  change in F340/F380 evoked by 10 mM Ca2+: 1.140 and 1.055 and 0.900 and 0.960
T567A mutant hTRPV6; 10 μM THCV
  change in F340/F380 evoked by 10 mM Ca2+: 0.758 and 0.727 and 0.672 and 0.689
T567A mutant hTRPV6; 30 μM THCV
  change in F340/F380 evoked by 10 mM Ca2+: 0.515 and 0.510 and 0.506 and 0.585
T567A mutant hTRPV6; 100 μM THCV
  change in F340/F380 evoked by 10 mM Ca2+: 0.601 and 0.585 and 0.580 and 0.569
L568Q mutant hTRPV6; 1 μM THCV
  change in F340/F380 evoked by 10 mM Ca2+: 1.262 and 1.194 and 1.190 and 1.061
L568Q mutant hTRPV6; 3 μM THCV
  change in F340/F380 evoked by 10 mM Ca2+: 1.268 and 1.078 and 1.208 and 1.198
L568Q mutant hTRPV6; 10 μM THCV
  change in F340/F380 evoked by 10 mM Ca2+: 1.100 and 1.052 and 0.968 and 0.899
L568Q mutant hTRPV6; 30 μM THCV
  change in F340/F380 evoked by 10 mM Ca2+: 0.830 and 1.001 and 0.924 and 0.918
L568Q mutant hTRPV6; 100 μM THCV
  change in F340/F380 evoked by 10 mM Ca2+: 0.622 and 0.538 and 0.588 and 0.590
